These are yes or no findings as the source states them, for the method shown. In cells and extracts the contact can be indirect. Some results given as binding are weak or reduced against the parent protein; the word gives no strength. Where a sequence is shown, tags or fusion partners need not be part of it.
Target: T1, 14-3-3 OMEGA:YFP (Arabidopsis thaliana) (UniProt Q01525)
T1 sequence: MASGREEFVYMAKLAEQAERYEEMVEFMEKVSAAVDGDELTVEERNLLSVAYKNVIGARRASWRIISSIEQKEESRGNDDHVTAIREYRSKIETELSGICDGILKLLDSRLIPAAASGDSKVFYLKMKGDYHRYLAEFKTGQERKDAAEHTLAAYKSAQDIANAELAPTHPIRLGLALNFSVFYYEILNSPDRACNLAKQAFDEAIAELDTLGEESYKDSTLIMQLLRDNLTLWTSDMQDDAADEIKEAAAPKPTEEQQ
Test: co-IP; YFP fusion as bait on GFP-Trap agarose beads from N. benthamiana leaves transiently co-expressing the proteins, extracted 48 h post-infiltration; lysis buffer as for MS; eluted by boiling in SDS-loading buffer; blots with anti-GFP and anti-HA

B1: 14-3-3 KAPPA:HA (protein, UniProt P48348 1-248)
chain: MATTLSRDQYVYMAKLAEQAERYEEMVQFMEQLVSGATPAGELTVEERNLLSVAYKNVIGSLRAAWRIVSSIEQKEESRKNEEHVSLVKDYRSKVETELSSICSGILRLLDSHLIPSATASESKVFYLKMKGDYHRYLAEFKSGDERKTAAEDTMIAYKAAQDVAVADLAPTHPIRLGLALNFSVFYYEILNSSEKACSMAKQAFEEAIAELDTLGEESYKDSTLIMQLLRDNLTLWTSDMQEQMDEA
**Q.** For B1, which binding is on record?
**A.** Its binding is “binds”.

— PMC8566215
